No constants are given. Whether binding was seen depends on the method and setting. Binding seen in cells or lysates may run through a third protein. Here binding means that the protein was enriched with, or labelled near, the bait; the list need not be complete. For some assays here: No binding means not detected with the bait.
B1: MICAL1, in SH-SY5Y-derived neurons (protein, UniProt Q8TDZ2 1-1067)
chain: MASPTSTNPAHAHFESFLQAQLCQDVLSSFQELCGALGLEPGGGLPQYHKIKDQLNYWSAKSLWTKLDKRAGQPVYQQGRACTSTKCLVVGAGPCGLRVAVELALLGARVVLVEKRTKFSRHNVLHLWPFTIHDLRALGAKKFYGRFCTGTLDHISIRQLQLLLLKVALLLGVEIHWGVTFTGLQPPPRKGSGWRAQLQPNPPAQLANYEFDVLISAAGGKFVPEGFKVREMRGKLAIGITANFVNGRTVEETQVPEISGVARIYNQSFFQSLLKATGIDLENIVYYKDDTHYFVMTAKKQCLLRLGVLRQDWPDTNRLLGSANVVPEALQRFTRAAADFATHGKLGKLEFAQDAHGQPDVSAFDFTSMMRAESSARVQEKHGARLLLGLVGDCLVEPFWPLGTGVARGFLAAFDAAWMVKRWAEGAESLEVLAERESLYQLLSQTSPENMHRNVAQYGLDPATRYPNLNLRAVTPNQVRDLYDVLAKEPVQRNNDKTDTGMPATGSAGTQEELLRWCQEQTAGYPGVHVSDLSSSWADGLALCALVYRLQPGLLEPSELQGLGALEATAWALKVAENELGITPVVSAQAVVAGSDPLGLIAYLSHFHSAFKSMAHSPGPVSQASPGTSSAVLFLSKLQRTLQRSRAKENAEDAGGKKLRLEMEAETPSTEVPPDPEPGVPLTPPSQHQEAGAGDLCALCGEHLYVLERLCVNGHFFHRSCFRCHTCEATLWPGGYEQHPGDGHFYCLQHLPQTDHKAEGSDRGPESPELPTPSENSMPPGLSTPTASQEGAGPVPDPSQPTRRQIRLSSPERQRLSSLNLTPDPEMEPPPKPPRSCSALARHALESSFVGWGLPVQSPQALVAMEKEEKESPFSSEEEEEDVPLDSDVEQALQTFAKTSGTMNNYPTWRRTLLRRAKEEEMKRFCKAQTIQRRLNEIEAALRELEAEGVKLELALRRQSSSPEQQKKLWVGQLLQLVDKKNSLVAEEAELMITVQELNLEEKQWQLDQELRGYMNREENLKTAADRQAEDQVLRKLVDLVNQRDALIRFQEERRLSELALGTGAQG
B2: YWHAH (14-3-3 η), in SH-SY5Y-derived neurons (protein, UniProt Q04917 1-246)
chain: MGDREQLLQRARLAEQAERYDDMASAMKAVTELNEPLSNEDRNLLSVAYKNVVGARRSSWRVISSIEQKTMADGNEKKLEKVKAYREKIEKELETVCNDVLSLLDKFLIKNCNDFQYESKVFYLKMKGDYYRYLAEVASGEKKNSVVEASEAAYKEAFEISKEQMQPTHPIRLGLALNFSVFYYEIQNAPEQACLLAKQAFDDAIAELDTLNEDSYKDSTLIMQLLRDNLTLWTSDQQDEEAGEGN
B3: YWHAG (14-3-3γ) (protein, UniProt P61981 1-247)
chain: MVDREQLVQKARLAEQAERYDDMAAAMKNVTELNEPLSNEERNLLSVAYKNVVGARRSSWRVISSIEQKTSADGNEKKIEMVRAYREKIEKELEAVCQDVLSLLDNYLIKNCSETQYESKVFYLKMKGDYYRYLAEVATGEKRATVVESSEKAYSEAHEISKEHMQPTHPIRLGLALNYSVFYYEIQNAPEQACHLAKTAFDDAIAELDTLNEDSYKDSTLIMQLLRDNLTLWTSDQQDDDGGEGNN
B4: YWHAG (14-3-3γ), in SH-SY5Y-derived neurons (protein, UniProt P61981 1-247)
chain: B3 chain
B5: YWHAQ (14-3-3τ), in SH-SY5Y-derived neurons (protein, UniProt P27348 1-245)
chain: MEKTELIQKAKLAEQAERYDDMATCMKAVTEQGAELSNEERNLLSVAYKNVVGGRRSAWRVISSIEQKTDTSDKKLQLIKDYREKVESELRSICTTVLELLDKYLIANATNPESKVFYLKMKGDYFRYLAEVACGDDRKQTIDNSQGAYQEAFDISKKEMQPTHPIRLGLALNFSVFYYEILNNPELACTLAKTAFDEAIAELDTLNEDSYKDSTLIMQLLRDNLTLWTSDSAGEECDAAEGAEN

Amino acid sequences for entries named in this document (tags omitted). A change or cut given only in a name is not applied to a line headed by its entry. Chains listed by the source or under a name are the forms on record and can include a tag or linker. Residues count along the entry.
UniProt P20700: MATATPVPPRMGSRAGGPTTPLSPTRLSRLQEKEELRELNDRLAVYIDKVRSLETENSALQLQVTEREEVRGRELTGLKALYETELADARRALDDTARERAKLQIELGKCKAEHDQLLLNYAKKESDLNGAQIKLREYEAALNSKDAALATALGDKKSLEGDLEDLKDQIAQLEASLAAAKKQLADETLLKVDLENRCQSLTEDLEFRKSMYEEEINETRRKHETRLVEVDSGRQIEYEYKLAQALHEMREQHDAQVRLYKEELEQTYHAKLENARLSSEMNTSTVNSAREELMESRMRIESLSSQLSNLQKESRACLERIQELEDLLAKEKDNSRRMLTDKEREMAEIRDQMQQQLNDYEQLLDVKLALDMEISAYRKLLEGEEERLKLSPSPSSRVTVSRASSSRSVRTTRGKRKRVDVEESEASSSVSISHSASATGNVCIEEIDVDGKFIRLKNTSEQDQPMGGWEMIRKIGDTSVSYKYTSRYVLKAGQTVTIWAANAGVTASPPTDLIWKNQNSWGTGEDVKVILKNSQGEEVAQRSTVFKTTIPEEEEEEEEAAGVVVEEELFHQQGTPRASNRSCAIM
N-terminal GFP-tagged truncated Lamin B1 lacking the NLS (LMNB1_N409), in SH-SY5Y-derived neurons: residues 1-409 of P20700
UniProt P31946: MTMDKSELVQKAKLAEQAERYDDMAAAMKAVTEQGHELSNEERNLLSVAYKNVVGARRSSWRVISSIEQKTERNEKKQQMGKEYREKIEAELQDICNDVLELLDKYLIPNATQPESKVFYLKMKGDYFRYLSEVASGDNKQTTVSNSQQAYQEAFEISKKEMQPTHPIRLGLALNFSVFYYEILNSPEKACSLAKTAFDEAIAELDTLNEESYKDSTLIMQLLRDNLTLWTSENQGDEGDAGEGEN
UniProt P63104: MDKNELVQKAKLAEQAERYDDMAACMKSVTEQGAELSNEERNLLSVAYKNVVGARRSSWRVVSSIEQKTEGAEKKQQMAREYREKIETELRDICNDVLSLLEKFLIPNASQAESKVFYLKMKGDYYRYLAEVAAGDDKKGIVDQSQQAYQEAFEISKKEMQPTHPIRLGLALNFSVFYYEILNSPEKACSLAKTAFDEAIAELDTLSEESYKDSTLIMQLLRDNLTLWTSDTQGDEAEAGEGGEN
UniProt P62258: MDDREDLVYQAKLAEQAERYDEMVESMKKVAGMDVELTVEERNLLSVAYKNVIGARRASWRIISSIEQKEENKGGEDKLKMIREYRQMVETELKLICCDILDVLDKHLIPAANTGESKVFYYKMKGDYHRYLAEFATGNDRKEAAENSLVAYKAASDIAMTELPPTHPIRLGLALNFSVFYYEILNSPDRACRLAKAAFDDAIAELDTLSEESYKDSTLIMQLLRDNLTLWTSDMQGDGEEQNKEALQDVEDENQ

molecular target: N-terminal GFP-tagged full length Lamin B1 (LMNB1_FL), in SH-SY5Y-derived neurons (human) (UniProt P20700); assay: affinity purification with mass spectrometry

| binding | Molecule |
| --- | --- |
| no binding | B1 |
| no binding | B2 |

molecular target: N-terminal GFP-tagged truncated Lamin B1 lacking the NLS (LMNB1_N409) (human) (UniProt P20700); assay: affinity purification with mass spectrometry

| binding | Molecule |
| --- | --- |
| binds | KPNA6 (karyopherin subunit alpha 6, Importin-α family) (from UniProt O60684 1-536) |
| binds | YWHAB (14-3-3β) (from UniProt P31946 1-246) |
| binds | YWHAZ (14-3-3ζ) (from UniProt P63104 1-245) |
| binds | B3 |

molecular target: N-terminal GFP-tagged full length Lamin B1 (LMNB1_FL) (human) (UniProt P20700); assay: affinity purification with mass spectrometry

| binding | Molecule |
| --- | --- |
| binds | KPNA6 (karyopherin subunit alpha 6, Importin-α family) (from UniProt O60684 1-536) |

molecular target: N-terminal GFP-tagged truncated Lamin B1 lacking the NLS (LMNB1_N409), in SH-SY5Y-derived neurons (human) (UniProt P20700); assay: affinity purification with mass spectrometry

| binding | Molecule |
| --- | --- |
| binds | YWHAB (14-3-3β), in SH-SY5Y-derived neurons (from UniProt P31946 1-246) |
| binds | YWHAE (14-3-3ε), in SH-SY5Y-derived neurons (from UniProt P62258 1-255) |
| binds | YWHAZ (14-3-3ζ), in SH-SY5Y-derived neurons (from UniProt P63104 1-245) |
| binds | B1 |
| binds | B2 |
| binds | B4 |
| binds | B5 |

From article doi:10.1101/2025.07.09.662391
